In the supplement of paper PMC11732987, “Enantioselective OTUD7B fragment discovery through chemoproteomics screening and high-throughput optimisation” (Communications Chemistry, 2025):
The list shows a part of the results. The data scatter; read single values as rough.

Protein sequences, listed by entry. Tags and fused reporters are not part of them. Lines headed by an entry give the natural chain unless they say otherwise; changes in a name come on top. Residues count along the entry.
UniProt Q9P219: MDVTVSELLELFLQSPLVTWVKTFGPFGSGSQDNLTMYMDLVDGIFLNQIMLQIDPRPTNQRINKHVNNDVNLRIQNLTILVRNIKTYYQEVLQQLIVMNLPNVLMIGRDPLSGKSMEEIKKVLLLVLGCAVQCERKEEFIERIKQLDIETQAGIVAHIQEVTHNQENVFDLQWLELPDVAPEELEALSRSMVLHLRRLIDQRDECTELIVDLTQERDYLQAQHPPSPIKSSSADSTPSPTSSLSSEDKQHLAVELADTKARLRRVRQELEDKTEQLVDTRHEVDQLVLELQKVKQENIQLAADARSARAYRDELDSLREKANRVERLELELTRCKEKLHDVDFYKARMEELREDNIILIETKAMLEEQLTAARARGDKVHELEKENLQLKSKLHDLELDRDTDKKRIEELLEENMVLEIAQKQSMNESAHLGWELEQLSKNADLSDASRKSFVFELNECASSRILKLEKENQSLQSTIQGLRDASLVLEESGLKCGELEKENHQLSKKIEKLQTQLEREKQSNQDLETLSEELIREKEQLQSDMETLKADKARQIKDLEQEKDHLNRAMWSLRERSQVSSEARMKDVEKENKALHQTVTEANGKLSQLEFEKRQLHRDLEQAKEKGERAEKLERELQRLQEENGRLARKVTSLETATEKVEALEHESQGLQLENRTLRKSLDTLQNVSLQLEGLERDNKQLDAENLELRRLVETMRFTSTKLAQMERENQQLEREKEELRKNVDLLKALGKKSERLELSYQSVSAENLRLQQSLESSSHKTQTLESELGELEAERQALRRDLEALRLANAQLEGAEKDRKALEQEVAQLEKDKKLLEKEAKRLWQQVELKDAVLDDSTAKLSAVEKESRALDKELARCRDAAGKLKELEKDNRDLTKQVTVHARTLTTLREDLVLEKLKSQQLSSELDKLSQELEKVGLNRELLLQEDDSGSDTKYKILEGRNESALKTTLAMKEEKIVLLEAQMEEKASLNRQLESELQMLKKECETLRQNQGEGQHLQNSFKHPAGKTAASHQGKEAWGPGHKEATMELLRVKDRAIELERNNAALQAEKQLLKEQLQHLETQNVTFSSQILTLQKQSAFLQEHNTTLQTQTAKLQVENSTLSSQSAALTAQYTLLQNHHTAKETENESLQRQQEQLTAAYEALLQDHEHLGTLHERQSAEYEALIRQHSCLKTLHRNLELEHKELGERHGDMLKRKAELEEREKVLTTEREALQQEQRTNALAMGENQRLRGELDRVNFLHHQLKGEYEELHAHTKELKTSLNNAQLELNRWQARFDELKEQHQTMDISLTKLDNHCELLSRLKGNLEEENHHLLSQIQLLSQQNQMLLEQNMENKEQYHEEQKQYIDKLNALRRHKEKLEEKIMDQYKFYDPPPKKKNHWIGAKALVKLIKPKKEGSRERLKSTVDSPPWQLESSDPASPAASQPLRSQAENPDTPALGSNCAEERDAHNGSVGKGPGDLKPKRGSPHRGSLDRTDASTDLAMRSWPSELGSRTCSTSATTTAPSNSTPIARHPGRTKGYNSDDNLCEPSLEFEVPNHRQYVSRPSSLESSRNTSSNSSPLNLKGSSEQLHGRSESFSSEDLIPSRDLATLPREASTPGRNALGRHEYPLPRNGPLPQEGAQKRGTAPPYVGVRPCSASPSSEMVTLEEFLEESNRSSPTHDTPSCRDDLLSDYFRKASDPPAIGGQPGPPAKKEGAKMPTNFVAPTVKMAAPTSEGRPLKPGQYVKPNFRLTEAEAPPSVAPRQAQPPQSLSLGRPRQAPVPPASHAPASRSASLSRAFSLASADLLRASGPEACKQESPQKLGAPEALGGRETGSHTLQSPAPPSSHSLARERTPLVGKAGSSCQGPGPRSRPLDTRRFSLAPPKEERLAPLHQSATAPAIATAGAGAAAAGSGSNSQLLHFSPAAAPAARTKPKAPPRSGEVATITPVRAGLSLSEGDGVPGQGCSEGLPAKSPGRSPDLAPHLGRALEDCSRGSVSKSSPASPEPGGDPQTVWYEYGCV
UniProt P49454: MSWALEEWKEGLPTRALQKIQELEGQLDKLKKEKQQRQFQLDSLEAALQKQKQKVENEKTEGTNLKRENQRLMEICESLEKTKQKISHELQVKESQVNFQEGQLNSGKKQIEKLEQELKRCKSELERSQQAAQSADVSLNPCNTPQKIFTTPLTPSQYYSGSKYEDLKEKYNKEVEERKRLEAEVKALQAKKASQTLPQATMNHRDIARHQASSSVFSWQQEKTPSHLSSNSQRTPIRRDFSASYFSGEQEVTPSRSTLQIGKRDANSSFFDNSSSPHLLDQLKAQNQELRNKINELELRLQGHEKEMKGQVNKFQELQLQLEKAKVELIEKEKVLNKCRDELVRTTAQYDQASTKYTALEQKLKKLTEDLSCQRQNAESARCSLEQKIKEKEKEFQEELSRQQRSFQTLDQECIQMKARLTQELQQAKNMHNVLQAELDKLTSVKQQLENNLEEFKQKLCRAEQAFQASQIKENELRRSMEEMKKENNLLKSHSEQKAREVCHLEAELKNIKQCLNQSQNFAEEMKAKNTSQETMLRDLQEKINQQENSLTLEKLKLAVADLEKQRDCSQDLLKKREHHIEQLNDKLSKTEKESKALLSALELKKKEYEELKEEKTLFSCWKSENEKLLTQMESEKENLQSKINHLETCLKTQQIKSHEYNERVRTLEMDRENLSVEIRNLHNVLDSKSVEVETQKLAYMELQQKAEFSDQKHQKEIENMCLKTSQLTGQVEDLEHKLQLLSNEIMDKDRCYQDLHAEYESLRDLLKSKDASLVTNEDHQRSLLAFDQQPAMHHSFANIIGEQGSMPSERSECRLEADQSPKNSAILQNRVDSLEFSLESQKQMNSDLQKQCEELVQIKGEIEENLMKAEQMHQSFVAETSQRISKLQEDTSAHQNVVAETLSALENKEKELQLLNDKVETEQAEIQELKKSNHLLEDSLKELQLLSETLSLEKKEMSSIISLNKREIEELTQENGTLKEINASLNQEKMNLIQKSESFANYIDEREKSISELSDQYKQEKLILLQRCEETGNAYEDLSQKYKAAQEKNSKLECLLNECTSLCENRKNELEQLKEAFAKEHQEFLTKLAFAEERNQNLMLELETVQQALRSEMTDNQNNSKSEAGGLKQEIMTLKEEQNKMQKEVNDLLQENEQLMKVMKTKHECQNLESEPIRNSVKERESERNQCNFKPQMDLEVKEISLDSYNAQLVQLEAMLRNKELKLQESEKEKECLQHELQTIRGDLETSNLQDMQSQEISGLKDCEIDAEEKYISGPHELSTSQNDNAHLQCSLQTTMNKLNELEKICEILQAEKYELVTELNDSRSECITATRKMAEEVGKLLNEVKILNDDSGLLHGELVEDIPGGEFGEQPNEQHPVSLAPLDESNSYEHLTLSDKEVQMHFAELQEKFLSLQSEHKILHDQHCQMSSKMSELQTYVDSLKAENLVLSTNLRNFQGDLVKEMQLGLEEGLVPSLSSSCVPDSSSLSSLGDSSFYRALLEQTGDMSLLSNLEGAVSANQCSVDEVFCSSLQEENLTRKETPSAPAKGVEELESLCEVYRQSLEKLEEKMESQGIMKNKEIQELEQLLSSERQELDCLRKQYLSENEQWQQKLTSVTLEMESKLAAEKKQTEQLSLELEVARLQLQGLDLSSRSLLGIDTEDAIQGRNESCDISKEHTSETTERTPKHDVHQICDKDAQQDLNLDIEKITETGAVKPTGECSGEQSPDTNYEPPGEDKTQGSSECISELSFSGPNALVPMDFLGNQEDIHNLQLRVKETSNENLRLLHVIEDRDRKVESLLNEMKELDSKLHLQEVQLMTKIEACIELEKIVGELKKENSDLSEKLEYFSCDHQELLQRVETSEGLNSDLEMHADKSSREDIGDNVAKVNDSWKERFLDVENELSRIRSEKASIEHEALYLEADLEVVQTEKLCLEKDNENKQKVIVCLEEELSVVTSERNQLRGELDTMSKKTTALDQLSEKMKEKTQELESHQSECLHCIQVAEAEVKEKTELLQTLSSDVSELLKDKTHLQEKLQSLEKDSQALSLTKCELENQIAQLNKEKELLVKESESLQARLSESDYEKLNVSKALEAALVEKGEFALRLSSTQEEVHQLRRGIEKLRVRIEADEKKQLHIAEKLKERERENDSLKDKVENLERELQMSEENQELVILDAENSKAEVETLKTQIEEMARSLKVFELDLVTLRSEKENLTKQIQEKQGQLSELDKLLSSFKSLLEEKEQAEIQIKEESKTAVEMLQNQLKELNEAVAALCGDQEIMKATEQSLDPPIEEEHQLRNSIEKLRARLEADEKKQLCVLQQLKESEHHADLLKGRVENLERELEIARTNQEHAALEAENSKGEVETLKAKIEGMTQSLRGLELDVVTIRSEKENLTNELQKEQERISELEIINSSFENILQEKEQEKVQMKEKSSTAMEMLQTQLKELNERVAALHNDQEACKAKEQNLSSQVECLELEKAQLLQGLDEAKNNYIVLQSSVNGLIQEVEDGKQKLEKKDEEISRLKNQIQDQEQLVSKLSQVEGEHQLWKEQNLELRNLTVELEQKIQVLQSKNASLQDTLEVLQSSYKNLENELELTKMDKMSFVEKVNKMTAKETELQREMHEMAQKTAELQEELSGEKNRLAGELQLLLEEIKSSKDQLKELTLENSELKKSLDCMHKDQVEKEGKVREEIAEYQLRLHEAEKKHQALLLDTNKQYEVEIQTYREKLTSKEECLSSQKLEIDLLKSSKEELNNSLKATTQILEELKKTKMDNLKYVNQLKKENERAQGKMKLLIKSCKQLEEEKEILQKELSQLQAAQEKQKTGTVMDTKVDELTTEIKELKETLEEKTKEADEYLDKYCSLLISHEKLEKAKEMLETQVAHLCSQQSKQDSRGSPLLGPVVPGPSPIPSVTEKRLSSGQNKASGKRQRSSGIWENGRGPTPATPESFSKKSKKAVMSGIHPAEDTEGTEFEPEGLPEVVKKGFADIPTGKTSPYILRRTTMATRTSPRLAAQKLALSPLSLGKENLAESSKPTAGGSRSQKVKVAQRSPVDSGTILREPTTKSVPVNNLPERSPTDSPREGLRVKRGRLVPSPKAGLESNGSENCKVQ
UniProt Q99832: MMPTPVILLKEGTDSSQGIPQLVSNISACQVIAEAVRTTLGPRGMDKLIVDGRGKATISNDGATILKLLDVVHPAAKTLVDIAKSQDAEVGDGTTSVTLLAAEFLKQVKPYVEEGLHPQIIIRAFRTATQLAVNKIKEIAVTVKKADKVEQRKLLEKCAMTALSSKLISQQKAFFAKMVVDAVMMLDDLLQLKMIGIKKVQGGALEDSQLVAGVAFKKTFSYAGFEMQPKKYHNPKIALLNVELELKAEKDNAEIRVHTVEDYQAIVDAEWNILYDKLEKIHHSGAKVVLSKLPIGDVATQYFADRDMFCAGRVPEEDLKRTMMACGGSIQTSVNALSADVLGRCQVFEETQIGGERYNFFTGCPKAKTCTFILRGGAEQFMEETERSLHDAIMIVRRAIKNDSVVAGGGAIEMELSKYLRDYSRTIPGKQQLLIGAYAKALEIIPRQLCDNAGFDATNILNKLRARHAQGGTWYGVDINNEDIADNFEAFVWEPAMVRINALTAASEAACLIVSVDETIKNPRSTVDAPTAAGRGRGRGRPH
UniProt P48643, whole entry, looked up: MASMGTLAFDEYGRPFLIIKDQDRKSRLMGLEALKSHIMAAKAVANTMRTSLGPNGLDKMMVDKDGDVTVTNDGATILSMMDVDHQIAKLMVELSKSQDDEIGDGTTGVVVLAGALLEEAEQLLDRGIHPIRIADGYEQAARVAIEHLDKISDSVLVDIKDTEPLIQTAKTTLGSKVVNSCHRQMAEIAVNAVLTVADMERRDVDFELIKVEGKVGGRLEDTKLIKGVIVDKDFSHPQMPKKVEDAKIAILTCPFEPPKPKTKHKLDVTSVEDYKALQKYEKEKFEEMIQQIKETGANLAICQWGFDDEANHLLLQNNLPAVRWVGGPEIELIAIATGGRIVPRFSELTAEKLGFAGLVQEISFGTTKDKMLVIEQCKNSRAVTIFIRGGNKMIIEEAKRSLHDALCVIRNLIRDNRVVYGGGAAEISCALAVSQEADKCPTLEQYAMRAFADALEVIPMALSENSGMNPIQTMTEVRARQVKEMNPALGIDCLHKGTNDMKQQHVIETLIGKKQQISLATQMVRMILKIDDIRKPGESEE
UniProt Q9C0D2, 2288-2308: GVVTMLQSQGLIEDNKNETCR
UniProt Q9C0F1, 349-368: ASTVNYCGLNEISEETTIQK
UniProt Q3V6T2, 219-241: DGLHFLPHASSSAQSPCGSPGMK
UniProt P11802: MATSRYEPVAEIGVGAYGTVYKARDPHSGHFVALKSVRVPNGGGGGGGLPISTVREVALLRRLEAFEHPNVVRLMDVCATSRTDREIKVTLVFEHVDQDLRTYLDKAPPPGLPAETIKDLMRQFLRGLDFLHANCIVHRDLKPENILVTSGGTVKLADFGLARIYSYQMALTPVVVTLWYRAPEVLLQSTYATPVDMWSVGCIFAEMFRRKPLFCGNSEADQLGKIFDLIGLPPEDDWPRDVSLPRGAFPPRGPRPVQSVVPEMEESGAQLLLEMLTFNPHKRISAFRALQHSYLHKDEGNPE

Compound: ClCC(=O)N[C@H]1CCCc2ccccc12
Experiment: log2 mean competition ratio of IA-DTB cysteine labelling (DMSO/compound) (log2 ratio); higher = stronger cysteine engagement by compound
Settings: 50 µM; treatment time: 4 h; cell line lysate: HEK293T
Procedure: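 IA-DTB competitive cysteine chemoproteomics in HEK293T RIPA lysate. Lysates were treated with compound 29 or 30 at 50 or 200 µM for 4 h, then IA-DTB (500 µM, 1 h), trypsin-digested, NeutrAvidin-enriched and analysed by diaPASEF. Competition ratio = intensity DMSO / intensity compound (n=4 treated, n=64 DMSO); binding: mean log2 CR ≥ 1 and p ≤ 0.05 plus QC filters. Target is the cysteine site.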

Row | Target | log2 mean competition ratio
1 | CCDC88C C1871 (UniProt Q9P219) | 0.291
2 | CDC42EP4 C313 (UniProt Q9H3Q1) | 0.186
3 | CENPF C503 (UniProt P49454) | -0.592
4 | CCT7 C364 (UniProt Q99832) | 0.091
5 | CCT5 C253 (UniProt P48643) | -0.206
6 | CDC42BPB C120 (UniProt Q9Y5S2) | 0.245
7 | CEP112 C514 (UniProt Q8N8E3) | -0.336
8 | CEP41 C240 (UniProt Q9BYV8) | 0.149
9 | CCP110 C436 (UniProt O43303) | -0.35
10 | CDK6 C83 (UniProt Q00534) | 0.26
11 | CEP295 C2307 (UniProt Q9C0D2) | 0.858
12 | CCDC97 C136 (UniProt Q96F63) | -0.194
13 | CENPF C1029 (UniProt P49454) | 0.0774
14 | CDK5RAP3 C150 (UniProt Q96JB5) | -0.134
15 | CDK8 C25 (UniProt P49336) | -0.217
16 | CDKN2AIP C24 (UniProt Q9NXV6) | 0.0475
17 | CDC23 C532 (UniProt Q9UJX2) | 0.119
18 | CCT5 C407 (UniProt P48643) | -0.0146
19 | CCDC186 C54 (UniProt Q7Z3E2) | 0.225

Row | Target | log2 mean competition ratio
20 | CCDC85C C373 (UniProt A6NKD9) | -0.181
21 | CDKN2C C141 (UniProt P42773) | 0.0941
22 | CCT7 C310 (UniProt Q99832) | 0.205
23 | CENPH C35 (UniProt Q9H3R5) | -0.254
24 | CENPB C259 (UniProt P07199) | 0.0478
25 | CEP44 C355 (UniProt Q9C0F1) | 0.0342
26 | CDCA2 C714 (UniProt Q69YH5) | -0.116
27 | CCT7 C370 (UniProt Q99832) | 0.171
28 | CCDC88A C235 (UniProt Q3V6T2) | 1.01
29 | CCDC88C C1520 (UniProt Q9P219) | -0.013
30 | CENPF C2738 (UniProt P49454) | -0.147
31 | CFAP298 C83 (UniProt P57076) | -0.143
32 | CEP350 C179 (UniProt Q5VT06) | 0.238
33 | CD99L2 C236 (UniProt Q8TCZ2) | -0.102
34 | CDK4 C215 (UniProt P11802) | -0.49
35 | CEP104 C525 (UniProt O60308) | 0.122
36 | CENPE C2643 (UniProt Q02224) | -0.124
37 | CDC25C C42 (UniProt P30307) | 0.43

Same assay, conditions: 200 µM; treatment time: 4 h; cell line lysate: HEK293T

Row | Target | log2 mean competition ratio
38 | CCDC88C C1871 (UniProt Q9P219) | -0.0629
39 | CDC42EP4 C313 (UniProt Q9H3Q1) | 0.108
40 | CENPF C503 (UniProt P49454) | 0.00772
41 | CCT7 C364 (UniProt Q99832) | -0.188
42 | CCT5 C253 (UniProt P48643) | -0.135
43 | CDC42BPB C120 (UniProt Q9Y5S2) | -0.151
44 | CEP112 C514 (UniProt Q8N8E3) | -0.168
45 | CEP41 C240 (UniProt Q9BYV8) | 0.0447
46 | CCP110 C436 (UniProt O43303) | 0.249
47 | CDK6 C83 (UniProt Q00534) | 0.141
48 | CEP295 C2307 (UniProt Q9C0D2) | 0.168
49 | CCDC97 C136 (UniProt Q96F63) | -0.12
50 | CENPF C1029 (UniProt P49454) | -0.507
51 | CDK5RAP3 C150 (UniProt Q96JB5) | -0.104
52 | CDK8 C25 (UniProt P49336) | 0.161
53 | CDKN2AIP C24 (UniProt Q9NXV6) | 0.0702
54 | CDC23 C532 (UniProt Q9UJX2) | -0.082
55 | CCT5 C407 (UniProt P48643) | -0.111
56 | CCDC186 C54 (UniProt Q7Z3E2) | -0.05

Row | Target | log2 mean competition ratio
57 | CCDC85C C373 (UniProt A6NKD9) | 0.101
58 | CDKN2C C141 (UniProt P42773) | 0.00794
59 | CCT7 C310 (UniProt Q99832) | -0.0766
60 | CENPH C35 (UniProt Q9H3R5) | -0.00422
61 | CENPB C259 (UniProt P07199) | -0.0226
62 | CEP44 C355 (UniProt Q9C0F1) | 0.0444
63 | CDCA2 C714 (UniProt Q69YH5) | -0.0324
64 | CCT7 C370 (UniProt Q99832) | -0.00229
65 | CCDC88A C235 (UniProt Q3V6T2) | 0.209
66 | CCDC88C C1520 (UniProt Q9P219) | 0.103
67 | CENPF C2738 (UniProt P49454) | -0.0891
68 | CFAP298 C83 (UniProt P57076) | 0.0138
69 | CEP350 C179 (UniProt Q5VT06) | -0.264
70 | CD99L2 C236 (UniProt Q8TCZ2) | -0.206
71 | CDK4 C215 (UniProt P11802) | -0.169
72 | CEP104 C525 (UniProt O60308) | -0.0646
73 | CENPE C2643 (UniProt Q02224) | 0.421
74 | CDC25C C42 (UniProt P30307) | 0.134
